Screening data, single-dose tests

Values are the deposited “Percent Effect”, in %.
The controls that fix the scale are not given in the record; negative values are as filed.
This is an unselected part of the compounds tested.

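Whole-parasite assay of Trypanosoma brucei over 72 hours; the read-out is not stated. Compounds at 30 µM. The record gives no direction; compounds that gave an IC50 in retests scored well above the rest, so higher reads as stronger inhibition. Values scatter widely below zero; nearly all retest evidence comes from the higher of the two concentrations used. Of about 64,000 compounds tested this way, about 940 (1.5%) reached 50% or more in at least one test.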

structure: Cc1cccc(C(=O)N2CCCN(Cc3cnn(C)c3)CC2)n1
Percent Effect: -12.06%

structure: COc1ccc2nnc(CCCC(=O)NCc3ccccc3)n2n1
Percent Effect: 1.979%

structure: CCN1CC(C(=O)N2CC(Oc3ccccc3Cl)C2)CC1=O (stereo not drawn)
Percent Effect: -44.08%

structure: Cc1ccc(C(=O)Nc2ccc3c(c2)N(C)CCN(C)C3)c(=O)[nH]1
Percent Effect: -46.32%

structure: COCCN(C(=O)c1ccc(OC)cc1)c1ccc(C#N)cc1
Percent Effect: -50.51%

structure: COc1cccc(S(=O)(=O)Cc2noc(CC(C)C)n2)c1
Percent Effect: 1.682%

structure: CN(C)Cc1cc(-c2nccn2CCc2cccnc2)ccc1O
Percent Effect: 2.098%

structure: COC(=O)c1ccoc1CN(C)CC(=O)NC1CC1
Percent Effect: -14.91%

structure: O=C(O)C(F)(F)F.O=C(O)C(F)(F)F.[H][C@@]12CCN(Cc3cnn(C)c3)[C@@]1([H])CCN2Cc1ccc2c(c1)OCO2
Percent Effect: -16.98%

structure: CCc1cc(CN(C)Cc2nc(-c3sccc3C)oc2C)on1
Percent Effect: -11.63%

structure: CC(SCc1ccc(Br)c2cccnc12)C(N)=O (stereo not drawn)
Percent Effect: -2.031%

structure: CCc1ccccc1CN1CC[C@@H](NC(=O)c2cccnc2)[C@H](O)C1
Percent Effect: 4.923%

structure: Cc1cnn(CC2CCN(CC(O)c3ccccc3Cl)CC2)c1 (stereo not drawn)
Percent Effect: -12.81%

structure: COC1CCCN(Cc2nc(Cc3ccccc3F)no2)C1 (stereo not drawn)
Percent Effect: 28.66%

structure: O=C(O)C(F)(F)F.O=C(O)C(F)(F)F.O=C(O)C(F)(F)F.c1coc(CN2CCC3(CC2)COCCN(CCN2CCCC2)C3)c1
Percent Effect: -28.19%

structure: CCOC(C)C(=O)NCc1cccc(CN2CCCCCC2)c1 (stereo not drawn)
Percent Effect: -3.123%

structure: CCC1(CO)CCCN(Cc2nccn2Cc2ccccc2)C1 (stereo not drawn)
Percent Effect: -5.033%

structure: CSc1ncc(C(=O)N(C)C(C)Cc2ccccn2)cn1 (stereo not drawn)
Percent Effect: 13.4%

structure: Cn1ncc2c(N3CCCN(C(=O)c4ccsc4)CC3)ncnc21
Percent Effect: 1.956%

structure: Cc1noc(C)c1CCC(=O)N1CCCN(CC(N)=O)CC1
Percent Effect: 6.896%

structure: CCN1CCCC(O)(c2nc(C)c(CCOc3ccccc3F)s2)CC1 (stereo not drawn)
Percent Effect: -7.056%

structure: C1CN(CC2CCOCC2)Cc2c(CN3CCOCC3)nnn2C1
Percent Effect: -2.052%

structure: COCC(=O)N[C@H](C(=O)NC(C)c1cc(C)ccc1C)C(C)C (stereo partly drawn)
Percent Effect: -3.101%

structure: O=C(O)C(F)(F)F.[H][C@]12CCN(C(=O)NCc3cccnc3)C[C@@]1([H])OCCN(C(C)=O)C2
Percent Effect: -30.98%

structure: CCc1ncc2c(n1)CN(Cc1nc(-c3ccccn3)no1)CC2
Percent Effect: 1.038%

structure: CN(Cc1cnn(C)c1)C(=O)Nc1cccnc1-n1cccn1
Percent Effect: -15.89%

structure: Cc1cc(C)n(CC2CN(Cc3nc4ccccc4s3)CCO2)n1 (stereo not drawn)
Percent Effect: 18.1%

structure: CN(CC(F)(F)F)C(=O)CNC(=O)Cc1cccc(O)c1
Percent Effect: 2.084%

structure: COc1cccc(C(=O)NCc2ccccc2S(=O)(=O)N(C)CCO)c1
Percent Effect: -13.25%

structure: COCC1COCCC12CCN(C(=O)Cc1ccc(F)cc1)CC2 (stereo not drawn)
Percent Effect: -34.14%

structure: O=C(Cn1ccc2ncccc2c1=O)N1CCSCC1
Percent Effect: -33.81%

structure: CC(C)Cc1cc(C(=O)N2CCCN(c3ncccn3)CC2)[nH]n1
Percent Effect: -15.88%

structure: [H][C@@]12CN(C3CCOCC3)C(=O)N1CCN(S(C)(=O)=O)C2
Percent Effect: -8.552%

structure: Cc1cc(C)n(CC(=O)N2CCCCC2CCN2CCCC2=O)c(=O)n1 (stereo not drawn)
Percent Effect: -39.25%

structure: [H][C@@]12CN(c3ccc(C)nn3)C[C@@H](C(=O)NC3CCC3)[C@]1([H])CCO2
Percent Effect: -8.911%

structure: O=C(O)C(F)(F)F.[H][C@@]12CN(Cc3ccc(F)cc3)C[C@]1([H])C(=O)N(c1cncnc1)C2
Percent Effect: -42.87%

structure: O=C1CC(N(C(=O)c2csc(-c3ccccc3)n2)C2CC2)C(=O)N1 (stereo not drawn)
Percent Effect: 9.836%

structure: CN(C(=O)CCNC(=O)C1COc2ccccc21)c1ccccc1 (stereo not drawn)
Percent Effect: 2.23%

structure: O=C(O)C(F)(F)F.[H][C@@]12CN(CCOC)CCO[C@]1([H])CN(C(=O)COc1ccc(C)cc1)C2
Percent Effect: -4.086%

structure: NC(=O)Nc1cccc(C(=O)N(Cc2ccc(F)cc2)C2CC2)c1
Percent Effect: -8.177%

structure: Cc1ccc(C)c(C(=O)NCC(c2cccn2C)N2CCCCCC2)c1 (stereo not drawn)
Percent Effect: 2.589%

structure: Cc1ccc(C(C)NC(=O)N2CCN(C(=O)CC(F)(F)F)CC2)o1 (stereo not drawn)
Percent Effect: -10.24%

structure: CCOCCNc1nc(-c2ccncc2)nc2c1CCNCC2
Percent Effect: -307.1%

structure: CCOCC1CN(Cc2nccs2)Cc2nn(CC3CC3)cc21.O=C(O)C(F)(F)F (stereo not drawn)
Percent Effect: -7.531%

structure: Cc1cc(C)c(-c2nc(-c3c(C)ncc4c3CCNC4)no2)o1
Percent Effect: -0.4206%

structure: CCn1ccnc1CN1CCOC(Cn2cccn2)C1 (stereo not drawn)
Percent Effect: -2.468%

structure: CC(C(=O)N1CCC(Nc2cccnn2)CC1)n1ccnc1 (stereo not drawn)
Percent Effect: -4.852%

structure: O=C(C1CC1)N1CCC2(CC1)CNCCO2
Percent Effect: -62.51%

structure: c1cnn(CC2CCCCN2Cc2nc(-c3ccoc3)no2)c1 (stereo not drawn)
Percent Effect: -13.52%

structure: CCOc1c(F)cccc1C(=O)N(CC)C(C)c1ccncc1 (stereo not drawn)
Percent Effect: 3.975%

structure: CC(C)C(=O)N1CCC(C2C(=O)Nc3ccccc32)CC1 (stereo not drawn)
Percent Effect: -21.66%

structure: CN(Cc1nc(CS(C)(=O)=O)no1)c1ccccc1
Percent Effect: -11.3%

structure: COC(=O)c1cccc(C(=O)N2CCN(c3ccc(OC)cc3)CC2)n1
Percent Effect: 1.944%

For reference, 3 entries once more:

structure,Percent Effect
CC(C(=O)N1CCC(Nc2cccnn2)CC1)n1ccnc1 (stereo not drawn),-4.852%
CN(Cc1nc(CS(C)(=O)=O)no1)c1ccccc1,-11.3%
CCc1ccccc1CN1CC[C@@H](NC(=O)c2cccnc2)[C@H](O)C1,4.923%

Data taken from ChEMBL document CHEMBL3988442, “University of Dundee, Small-Polar-MMV Screening Library” (2021).